# Reference: the supplement of paper PMC8728848
# The other results are listed elsewhere or left out.
# B1: AT3G44510(29) (Arabidopsis thaliana), F4J341 (protein)
# chain: MEEHLQGRIKLHDGRYLAYKERGVPKDDAKFTIVLVHGFGSSKDMNFNVSQELVNEIGIYFVLYDRAGYGESDPNPKRSLKSEAYDVQELADGLEIGSRFYLIGISMGSYTVWSCLKHIPQRLAGVAMVAPVVNFRWPSIPKSLMPKDYRREVAKWSVWIANYFPGLLQWLVTQNMFSTTSMLEKNPVYFNDQDIEVLKHIKGFPMLTKEKLRERGVFGTLRSDFLVAFGDWDFDPADLPDPSLSGPEKGSSSVHIWQGYEDKVMPFQLQRCLCRKLPWIRYHEVPKGGHLIVHYDGICDAILKSLLLGEDLPMYKPKAVITEPA
# Legend:
# Assay in all cases: glycan array binding signal (z-score within array); higher = stronger binding
# Details in all cases: glycan notation: IUPAC condensed, linker removed
# [1] = molecular target: GlcNAc(a1-6)Gal(b1-4)GlcNAc
# In short: (§1)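 The Consortium for Functional Glycomics database supplied 3228 glycan arrays, of which those lacking an available protein sequence were dropped. The binding signal, a within-array Z-score, was averaged across arrays of the same protein sequence and across linkers. Negative scores can be read as non-binding.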
# [2] = molecular target: GlcNAc(b1-2)Gal(b1-3)GalNAc
# In short: as §1
# [3] = molecular target: GlcNAc(b1-2)Man(a1-3)[GlcNAc(b1-2)Man(a1-6)]Man(b1-4)GlcNAc(b1-4)GlcNAc
# In short: as §1
# [4] = molecular target: GlcNAc(b1-2)Man(a1-3)[GlcNAc(b1-2)Man(a1-6)]Man(b1-4)GlcNAc(b1-4)[Fuc(a1-6)]GlcNAc
# In short: as §1
# [5] = molecular target: GlcNAc(b1-2)Man(a1-3)[GlcNAc(b1-4)][GlcNAc(b1-2)Man(a1-6)]Man(b1-4)GlcNAc(b1-4)GlcNAc
# In short: as §1
# [6] = molecular target: GlcNAc(b1-2)Man(a1-3)[GlcNAc(b1-4)][GlcNAc(b1-2)Man(a1-6)]Man(b1-4)GlcNAc(b1-4)[Fuc(a1-6)]GlcNAc
# In short: as §1
# [7] = molecular target: GlcNAc(b1-2)[GlcNAc(b1-4)]Man(a1-3)[GlcNAc(b1-2)Man(a1-6)]Man(b1-4)GlcNAc(b1-4)GlcNAc
# In short: as §1
# [8] = molecular target: GlcNAc(b1-2)[GlcNAc(b1-4)]Man(a1-3)[GlcNAc(b1-4)][GlcNAc(b1-2)Man(a1-6)]Man(b1-4)GlcNAc(b1-4)GlcNAc
# In short: as §1
# [9] = molecular target: GlcNAc(b1-2)[GlcNAc(b1-4)]Man(a1-3)[GlcNAc(b1-4)][GlcNAc(b1-2)[GlcNAc(b1-6)]Man(a1-6)]Man(b1-4)GlcNAc(b1-4)GlcNAc
# In short: as §1
# [10] = molecular target: GlcNAc(b1-2)[GlcNAc(b1-4)]Man(a1-3)[GlcNAc(b1-4)][GlcNAc(b1-2)[GlcNAc(b1-6)]Man(a1-6)]Man(b1-4)GlcNAc(b1-4)[Fuc(a1-6)]GlcNAc
# In short: as §1
# [11] = molecular target: GlcNAc(b1-2)[GlcNAc(b1-6)]Man(a1-6)[GlcNAc(b1-2)Man(a1-3)]Man(b1-4)GlcNAc(b1-4)GlcNAc
# In short: as §1
# [12] = molecular target: GlcNAc(b1-2)[GlcNAc(b1-6)]Man(a1-6)[GlcNAc(b1-2)Man(a1-3)]Man(b1-4)GlcNAc(b1-4)[Fuc(a1-6)]GlcNAc
# In short: as §1
# [13] = molecular target: GlcNAc(b1-2)[GlcNAc(b1-6)]Man(a1-6)[GlcNAc(b1-4)][GlcNAc(b1-2)Man(a1-3)]Man(b1-4)GlcNAc(b1-4)GlcNAc
# In short: as §1
# [14] = molecular target: GlcNAc(b1-3)Fuc
# In short: as §1
# [15] = molecular target: GlcNAc(b1-3)Gal
# In short: as §1
# [16] = molecular target: GlcNAc(b1-3)Gal(b1-3)GalNAc
# In short: as §1
# [17] = molecular target: GlcNAc(b1-3)Gal(b1-4)Glc
# In short: as §1
# [18] = molecular target: GlcNAc(b1-3)Gal(b1-4)GlcNAc
# In short: as §1
# [19] = molecular target: GlcNAc(b1-3)Gal(b1-4)GlcNAc(b1-2)Man(a1-3)[GlcNAc(b1-3)Gal(b1-4)GlcNAc(b1-2)Man(a1-6)]Man(b1-4)GlcNAc(b1-4)GlcNAc
# In short: as §1
# [20] = molecular target: GlcNAc(b1-3)Gal(b1-4)GlcNAc(b1-2)Man(a1-3)[GlcNAc(b1-3)Gal(b1-4)GlcNAc(b1-2)Man(a1-6)]Man(b1-4)GlcNAc(b1-4)[Fuc(a1-6)]GlcNAc
# In short: as §1
# [21] = molecular target: GlcNAc(b1-3)Gal(b1-4)GlcNAc(b1-2)[GlcNAc(b1-3)Gal(b1-4)GlcNAc(b1-6)]Man(a1-6)[GlcNAc(b1-3)Gal(b1-4)GlcNAc(b1-2)Man(a1-3)]Man(b1-4)GlcNAc(b1-4)GlcNAc
# In short: as §1
# [22] = molecular target: GlcNAc(b1-3)Gal(b1-4)GlcNAc(b1-3)Gal(b1-4)GlcNAc
# In short: as §1
# [23] = molecular target: GlcNAc(b1-3)Gal(b1-4)GlcNAc(b1-3)Gal(b1-4)GlcNAc(b1-2)Man(a1-3)[GlcNAc(b1-3)Gal(b1-4)GlcNAc(b1-3)Gal(b1-4)GlcNAc(b1-2)Man(a1-6)]Man(b1-4)GlcNAc(b1-4)GlcNAc
# In short: as §1
# [24] = molecular target: GlcNAc(b1-3)Gal(b1-4)GlcNAc(b1-3)Gal(b1-4)GlcNAc(b1-2)Man(a1-3)[GlcNAc(b1-3)Gal(b1-4)GlcNAc(b1-3)Gal(b1-4)GlcNAc(b1-2)Man(a1-6)]Man(b1-4)GlcNAc(b1-4)[Fuc(a1-6)]GlcNAc
# In short: as §1
# [25] = molecular target: GlcNAc(b1-3)Gal(b1-4)GlcNAc(b1-3)Gal(b1-4)GlcNAc(b1-2)[GlcNAc(b1-3)Gal(b1-4)GlcNAc(b1-3)Gal(b1-4)GlcNAc(b1-6)]Man(a1-6)[GlcNAc(b1-3)Gal(b1-4)GlcNAc(b1-3)Gal(b1-4)GlcNAc(b1-2)Man(a1-3)]Man(b1-4)GlcNAc(b1-4)[Fuc(a1-6)]GlcNAc
# In short: as §1
# [26] = molecular target: GlcNAc(b1-3)Gal(b1-4)GlcNAc(b1-3)Gal(b1-4)GlcNAc(b1-3)Gal(b1-4)GlcNAc(b1-2)Man(a1-3)[GlcNAc(b1-3)Gal(b1-4)GlcNAc(b1-3)Gal(b1-4)GlcNAc(b1-3)Gal(b1-4)GlcNAc(b1-2)Man(a1-6)]Man(b1-4)GlcNAc(b1-4)GlcNAc
# In short: as §1
# [27] = molecular target: GlcNAc(b1-3)Gal(b1-4)GlcNAc(b1-3)Gal(b1-4)GlcNAc(b1-3)Gal(b1-4)GlcNAc(b1-2)Man(a1-3)[GlcNAc(b1-3)Gal(b1-4)GlcNAc(b1-3)Gal(b1-4)GlcNAc(b1-3)Gal(b1-4)GlcNAc(b1-2)Man(a1-6)]Man(b1-4)GlcNAc(b1-4)[Fuc(a1-6)]GlcNAc
# In short: as §1
# [28] = molecular target: GlcNAc(b1-3)Gal(b1-4)GlcNAc(b1-3)Gal(b1-4)GlcNAc(b1-3)Gal(b1-4)GlcNAc(b1-2)[GlcNAc(b1-3)Gal(b1-4)GlcNAc(b1-3)Gal(b1-4)GlcNAc(b1-3)Gal(b1-4)GlcNAc(b1-6)]Man(a1-6)[GlcNAc(b1-3)Gal(b1-4)GlcNAc(b1-3)Gal(b1-4)GlcNAc(b1-3)Gal(b1-4)GlcNAc(b1-2)Man(a1-3)]Man(b1-4)GlcNAc(b1-4)[Fuc(a1-6)]GlcNAc
# In short: as §1
# [29] = molecular target: GlcNAc(b1-3)Gal(b1-4)GlcNAc(b1-3)Gal(b1-4)GlcNAc(b1-3)Gal(b1-4)GlcNAc(b1-3)Gal(b1-4)GlcNAc(b1-2)Man(a1-3)[GlcNAc(b1-3)Gal(b1-4)GlcNAc(b1-3)Gal(b1-4)GlcNAc(b1-3)Gal(b1-4)GlcNAc(b1-3)Gal(b1-4)GlcNAc(b1-2)Man(a1-6)]Man(b1-4)GlcNAc(b1-4)GlcNAc
# In short: as §1
# [30] = molecular target: GlcNAc(b1-3)Gal(b1-4)GlcNAc(b1-3)Gal(b1-4)GlcNAc(b1-3)Gal(b1-4)GlcNAc(b1-3)Gal(b1-4)GlcNAc(b1-2)Man(a1-3)[GlcNAc(b1-3)Gal(b1-4)GlcNAc(b1-3)Gal(b1-4)GlcNAc(b1-3)Gal(b1-4)GlcNAc(b1-3)Gal(b1-4)GlcNAc(b1-2)Man(a1-6)]Man(b1-4)GlcNAc(b1-4)[Fuc(a1-6)]GlcNAc
# In short: as §1
# [31] = molecular target: GlcNAc(b1-3)Gal(b1-4)GlcNAc(b1-3)Gal(b1-4)GlcNAc(b1-3)Gal(b1-4)GlcNAc(b1-3)Gal(b1-4)GlcNAc(b1-2)[GlcNAc(b1-3)Gal(b1-4)GlcNAc(b1-3)Gal(b1-4)GlcNAc(b1-3)Gal(b1-4)GlcNAc(b1-3)Gal(b1-4)GlcNAc(b1-6)]Man(a1-6)[GlcNAc(b1-3)Gal(b1-4)GlcNAc(b1-3)Gal(b1-4)GlcNAc(b1-3)Gal(b1-4)GlcNAc(b1-3)Gal(b1-4)GlcNAc(b1-2)Man(a1-3)]Man(b1-4)GlcNAc(b1-4)[Fuc(a1-6)]GlcNAc
# In short: as §1
# [32] = molecular target: GlcNAc(b1-3)Gal(b1-4)GlcNAc(b1-3)Gal(b1-4)GlcNAc(b1-3)GalNAc
# In short: as §1
# [33] = molecular target: GlcNAc(b1-3)Gal(b1-4)GlcNAc(b1-3)GalNAc
# In short: as §1
# [34] = molecular target: GlcNAc(b1-3)Gal(b1-4)GlcNAc(b1-3)[GlcNAc(b1-3)Gal(b1-4)GlcNAc(b1-3)]GalNAc
# In short: as §1
# [35] = molecular target: GlcNAc(b1-3)Gal(b1-4)GlcNAc(b1-6)[Gal(b1-3)]GalNAc
# In short: as §1
# [36] = molecular target: GlcNAc(b1-3)Gal(b1-4)GlcNAc(b1-6)[GlcNAc(b1-3)Gal(b1-3)]GalNAc
# In short: as §1
# [37] = molecular target: GlcNAc(b1-3)Gal(b1-4)GlcNAc(b1-6)[GlcNAc(b1-3)]Gal(b1-4)GlcNAc
# In short: as §1
binder,measurement,setting,value
B1,glycan array binding signal (z-score),[1],-0.5
same,glycan array binding signal (z-score),[2],0.602
same,glycan array binding signal (z-score),[3],0.113
same,glycan array binding signal (z-score),[4],-0.697
same,glycan array binding signal (z-score),[5],-0.339
same,glycan array binding signal (z-score),[6],0.091
same,glycan array binding signal (z-score),[7],0.019
same,glycan array binding signal (z-score),[8],-0.629
same,glycan array binding signal (z-score),[9],-0.411
same,glycan array binding signal (z-score),[10],0.062
same,glycan array binding signal (z-score),[11],-0.575
same,glycan array binding signal (z-score),[12],-0.201
same,glycan array binding signal (z-score),[13],-0.394
same,glycan array binding signal (z-score),[14],0.104
same,glycan array binding signal (z-score),[15],-0.695
same,glycan array binding signal (z-score),[16],0.009
same,glycan array binding signal (z-score),[17],-0.345
same,glycan array binding signal (z-score),[18],0.6
same,glycan array binding signal (z-score),[19],0.047
same,glycan array binding signal (z-score),[20],0.315
same,glycan array binding signal (z-score),[21],2.5
same,glycan array binding signal (z-score),[22],0.013
same,glycan array binding signal (z-score),[23],0.562
same,glycan array binding signal (z-score),[24],0.558
same,glycan array binding signal (z-score),[25],0.292
same,glycan array binding signal (z-score),[26],0.308
same,glycan array binding signal (z-score),[27],-0.699
same,glycan array binding signal (z-score),[28],1.12
same,glycan array binding signal (z-score),[29],0.873
same,glycan array binding signal (z-score),[30],-0.686
same,glycan array binding signal (z-score),[31],-0.135
same,glycan array binding signal (z-score),[32],-0.482
same,glycan array binding signal (z-score),[33],1.05
same,glycan array binding signal (z-score),[34],-0.319
same,glycan array binding signal (z-score),[35],-0.882
same,glycan array binding signal (z-score),[36],-0.752
same,glycan array binding signal (z-score),[37],0.419

# An excerpt of these results, bar-delimited.
binder | measurement | setting | value
B1 | glycan array binding signal (z-score) | [30] | -0.686
same | glycan array binding signal (z-score) | [31] | -0.135
